Test results: the supplement of paper PMC10735217
The list shows a part of the results. This data set is noisy: repeats of one test often differ as much as different tests do.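 The human kidney-derived cells carry a stably integrated construct of eight TEAD-binding elements driving luciferase, read by luminescence in a drug-repurposing library screen. A compound counts as a hit when its signal is more than five robust Z scores above the plate mean.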

Tested on: HEK293A TEAD-LUC reporter
Assay: TEAD-luciferase reporter activity (YAP activation), robust Z score vs plate; higher = stronger YAP/TEAD activation
Details: 24 h

Row | Structure (SMILES) | TEAD-luciferase reporter activity (compound concentration: 200 nM) | TEAD-luciferase reporter activity (compound concentration: 2 uM) | TEAD-luciferase reporter activity (compound concentration: 10 uM)
1 | CC1OC(OC2CCC3(C=O)[C@H]4CCC5(C)C(C6=CC(=O)OC6)CCC5(O)[C@@H]4CCC3(O)C2)C(O)C(O)C1O (some centres not stated) | active: 25.9 | inactive: -2.47 | inactive: 1.64
2 | CC1(C)[C@H]2O[C@H]2[C@H]2[C@](C)(O)[C@@H]3CC[C@@H]4[C@@H](O)[C@@]3(C[C@@H](O)[C@@]21O)C[C@@]4(C)O [Rhomotoxin] | inactive: -2.02 | inactive: -0.412 | inactive: -0.961
3 | Oc1ncc(N(CCCl)CCCl)c(O)n1 [Uracil mustard] | inactive: -0.476 | inactive: 1.37 | inactive: -1.21
4 | NC1=N[C@H](O)[C@H]2[C@H]3OC4(O)O[C@@H](C(O)[C@@]2(N1)[C@@H]4O)[C@]3(O)CO (some centres not stated) [Tetrodotoxin] | inactive: -0.428 | inactive: -0.56 | inactive: 0.218
